The text below walks through data of the RNAGym collection of RNA variant scans (doi:10.1126/science.aae0568).

Variants at the background level are over-represented here.

The chains are these.
B1: tRNA (parent)
chain: GUUCCGUUGGCGUAAUGGUAACGCGUCUCCCUCCUAAGGAGAAGACUGCGGGUUCGAGUCCCGUACGGAACG

In the data set the parent is B1. Nature of the data set: yeast fitness relative to wild type (ratio to wild type); higher = fitter; tRNA-Arg(CCU), competitive growth, 37 C, YPD. The gist of the method:
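For this measurement, the tRNA-Arg(CCU) gene was varied by chemical synthesis at a 3% per-site mutation rate across 69 sites, and each variant was placed at the native genomic locus in Saccharomyces cerevisiae. The pooled strains went through a 24-hour competition in YPD at 37°C in six parallel replicates, with amplicons from start and end populations read by 100-nucleotide paired-end sequencing. Darwinian fitness relative to wild type followed from the change in each genotype's frequency. Genotypes needed ≥ 100 starting reads, and estimates < 0.5 were set to 0.5.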
Regarding U8A A36G C55G A57U C61U, the yeast fitness was at most 0.5. Then A15G C22G A36U A40G, with at most 0.5; and U8C G9C G68A, with at most 0.5. With A15U A21C C24G C29U A42C U59G G67U the figure was at most 0.5. Regarding A20G A21C G39C C49U A65U, the yeast fitness is at most 0.5. Then C4A U28G C31U A40C A57G, with at most 0.5; and C5U A15U C34U A37G A65C, with at most 0.5. On to C4G G23A C55A G67A, for which the yeast fitness was at most 0.5. With U8C G25C C34G C61U the figure was at most 0.5; with C5G A36U G41A, at most 0.5. Turning to C4A A15G G17A U32C C62A A69U, the yeast fitness was at most 0.5. With C24G U47G U53C G63A the figure was at most 0.5; with A20U C31G C55G C60G C66U A70U, at most 0.5. As to U7A C22U G23A C46A, the yeast fitness was at most 0.5.

With A15C C29U G39C A42U G50U G51C G63A A65U, the yeast fitness is at most 0.5.

Take U16G G38C G39A U64C C66A: the yeast fitness was at most 0.5. With U16C C29U C62U the figure was 0.508; with A43U A45U A57C, at most 0.5.

For G6C C33G C34U G58A, the yeast fitness was at most 0.5. Then A42C A57U C66U, with at most 0.5; and G18A C30G G38C, with 0.529. Then C4U A15G C22U G44C, with at most 0.5; and G17C A20C C22G A42C G68C, with at most 0.5; and G12A C27U U32A, with 0.702. Then C11A A20G G39A G51A U53A, with at most 0.5; and U7G G23C A45U G51C A69C, with at most 0.5; and A21U A45U C49U, with at most 0.5. Take U8C C46A: the yeast fitness amounted to 1.01.

Consider A45G G51A G67A, for which the yeast fitness came to 0.601. Then U2G G68C, with 0.705; and A15G A21C U32C U64A, with at most 0.5. Then C11U U28G A45C, with at most 0.5; and G6C A20C C22A A36C A69U, with at most 0.5. Turning to U7A C29G A69C, the yeast fitness is at most 0.5.

Turning to U7G A43U G56C, the yeast fitness is at most 0.5. For the variant C4U A14C U53A, the yeast fitness is at most 0.5. Then C31U C34U C49U U59G, with at most 0.5; and G6A A21U U26C G39A A45C, with at most 0.5; and G10A C46G A65C, with 0.597. Then U7A A15G C34G U59C A69C, with at most 0.5; and C24G C31G A40U A70C, with at most 0.5. Regarding G10C A43C A65U, the yeast fitness was at most 0.5. With C4A A45C C46U the figure was at most 0.5. As to A45C G50C G51C C55U G68A A70C, the yeast fitness is at most 0.5. In the case of C31G G41C G50C C60U, the yeast fitness is at most 0.5. Then A15U A57G U64A, with at most 0.5. Then G38A A40C G56A C60U C61G, with at most 0.5. Then G10C A37U G52A, with at most 0.5. On to G25C C49G G56C A70U, for which the yeast fitness is at most 0.5. Then C11G A57G, with 0.624. In the case of G6C U13C C31G C33A G67A, the yeast fitness is at most 0.5. Then A15G C24G C61U G63U G68A, with at most 0.5.

Turning to U16C C33G G39C A69C, the yeast fitness is at most 0.5.

For the variant U7C U28A A37G C46U U47C, the yeast fitness is at most 0.5.

With U8C G10A G58C A69U, the yeast fitness is at most 0.5. Then C33G U47A G50A G51A, with at most 0.5; and C33A C34U G39C U54A, with at most 0.5. For the variant G17A A40C, the yeast fitness worked out at 0.668. As to C5U U32G A45C C49A, the yeast fitness is at most 0.5.

G23C G39C A42U G52U U53A: the yeast fitness is at most 0.5. Then C29U C33A C34U C46G A57C, with at most 0.5; and G9C C24U G51A U59A, with at most 0.5; and U8A A69C, with 0.915. With C11G A15U C31U U47G G58C C62U the figure was at most 0.5. Then G10C A36C U47A G48C U54G A65C, with at most 0.5; and C11G C27A C29U G58A, with at most 0.5; and G17A C24G C27G A42U A65U, with at most 0.5. As to G12A C46U C62U, the yeast fitness came to 0.732. With G10C U28A the figure was 0.59; with C4A U8A G17C C31U A65C, at most 0.5; with U19A G41A A42G G58U G63C, at most 0.5. C5U G41A: the yeast fitness worked out at 0.906.

Consider C4G U28A G39A A65U G68A, for which the yeast fitness is at most 0.5. Turning to U3C U16C A37U, the yeast fitness is at most 0.5. Turning to C29A C30G A45U, the yeast fitness is at most 0.5. With G9A A15U A45U A65C the figure was at most 0.5. With C5U A20U C49G A69C the figure was at most 0.5; with G12C A20C C31G C66A, at most 0.5.

For the variant C24G C33U A37U, the yeast fitness was at most 0.5.

On to A21G U26C U47G G50C C66A, for which the yeast fitness was at most 0.5. Then U2C A21U G50A U54G, with at most 0.5; and U2A U19A C22G G23C C30G C34A C62U A69C, with at most 0.5; and G18A U26G G39C A69C, with at most 0.5.

As for U26A G48A C49G A70U, the yeast fitness was at most 0.5. With A45G G58A C60U, the yeast fitness is 0.584. Then U3G U26A U28G A45C U54C, with at most 0.5; and C4A C30U G38C A42G, with at most 0.5. With G6A A21G C62G A65U the figure was at most 0.5; with A15G C31G U47G C49G, 0.545; with A14G G51C U59G, at most 0.5. As to C4U C30G A40U G58U, the yeast fitness was at most 0.5. With A45C U47C C49U the figure was 0.806. Consider U19A C46U C62A, for which the yeast fitness is at most 0.5. Consider U7C A40C G50A, for which the yeast fitness was at most 0.5. Then G17A C22G C30G G44C C49U, with at most 0.5; and U13A G23C C27G U47A A70C, with at most 0.5. With U32C G52A G58C the figure was at most 0.5. Then U7G C24G C27U C29A C66U, with at most 0.5; and U2G A40C A57G, with at most 0.5; and A14G C31A C46G A57U A65G, with at most 0.5. Consider G10C C29A, for which the yeast fitness was at most 0.5. Then U2C C4U G10C, with at most 0.5. For U2A U7A G10A C33A A36C, the yeast fitness is at most 0.5. With C5U A20C U32C A40U G50A G52A A70U the figure was at most 0.5. Then A42G G52A A70G, with at most 0.5; and C11A G17C A45G G67C, with at most 0.5. Then C31U G52C A65U, with at most 0.5; and G6A A14U U59G A65U, with at most 0.5; and C4G A40U A42C A57C, with at most 0.5. Take A14U G48C: the yeast fitness was found to be 0.714. With U2G U47C C62G the figure was at most 0.5; with C5A C49U, 0.848. Then C11A G25C A37C, with at most 0.5; and G38A A57U, with 0.772; and U26C U32A C34U G38C G51A C60U C62U, with at most 0.5. On to G51C U54C, for which the yeast fitness was at most 0.5. For the variant C5A G12A G18A A57G, the yeast fitness was at most 0.5. Then G17C C46U G50C C66G, with at most 0.5; and U3C C31U A65U A70U, with at most 0.5. On to U16A C24U C33A G44C C61G A69U, for which the yeast fitness was at most 0.5. With C4U U47C C60A, the yeast fitness is at most 0.5. With G9A C27G A40G G52A the figure was at most 0.5; with G9A C24U A40U G68C, at most 0.5. Regarding C5U A21U C55U, the yeast fitness is at most 0.5.

As for G12C U16A A43C A57G U59C A70G, the yeast fitness is at most 0.5. Then C11G C33G U53G, with at most 0.5; and C11G G44C C55U, with at most 0.5.

Regarding G25A U28C, the yeast fitness came out at 0.891. Then A14C A20C C34A A42U, with at most 0.5.

Take C11G C30G A65C: the yeast fitness was at most 0.5. Then C5U G10C C30A A36U A42C, with at most 0.5; and U19A A37U C55A, with at most 0.5; and U7A U8A G10C, with at most 0.5. With G9C U26A A40C U47G the figure was at most 0.5; with U54G G63A A65G G68U A70C, at most 0.5.

U28C C61G A65G: the yeast fitness was at most 0.5.

Take G6C U7A A21C A37C U47C A69C: the yeast fitness was at most 0.5. With U7C C30U U54A the figure was at most 0.5; with U16G C55U A65C, at most 0.5. For C4A U7G G12C A57U, the yeast fitness is at most 0.5. With U3G G18A G67A the figure was at most 0.5. Then G17A A21G A40G A42C G68C, with at most 0.5. Then C4A G52C A57C, with at most 0.5. Turning to G18C A45U G52C, the yeast fitness is at most 0.5. Then U8C C29G U32C, with at most 0.5; and U3A C4A C29U A36U C66U G67A, with at most 0.5; and C4G U47A C49G, with at most 0.5. With G10C G23A A70U, the yeast fitness is at most 0.5. Then G10C U26A C34G, with at most 0.5; and G18C C33U A69U, with at most 0.5; and U2G U13A G17C U26A C46G, with at most 0.5. Then C4U C27G G52A, with at most 0.5; and C60A A69G, with 0.56; and A15U C30G C61U G68A, with at most 0.5. For the variant C30A G50U, the yeast fitness stood at 0.816. Then C4U G9A C22G A42U C62A C66G, with at most 0.5; and U28G A42C A57C, with 0.627. As to C11G A21U A70U, the yeast fitness was at most 0.5. On to U7A G41C A42U C62U, for which the yeast fitness is at most 0.5.

On to C4G U35C G39A, for which the yeast fitness was at most 0.5.

Turning to G63C A65C C66A, the yeast fitness was at most 0.5.

For C11A C55G C62G, the yeast fitness was at most 0.5.

Regarding G6A A14U C27U G67A, the yeast fitness is at most 0.5. With C24U C34G G63U A70U the figure was 0.542; with A40C A45C, 0.616; with A15G C24G A45G, at most 0.5.

Turning to C5U G12A A40U A45G C60A G63A, the yeast fitness was at most 0.5.
